PubChem BioAssay AID1259254, NCATS | 2017

Screen: 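Genome-wide screen for genes that prevent DNA re-replication in cancer cells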 (primary screen)
Cells: human HCT116 colorectal cancer cells
Reagent: single siRNA against human genes
Timing: 3 days
Read-out: 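Imaged Hoechst DNA stain sorts each cell into a cycle phase by DNA amount; per plate, G2 fraction set to 0% for non-targeting and 100% for GMNN siRNA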
Reading the numbers: G2 robust z-score and G2 cells, % of GMNN control: higher = more G2 cells, more excess DNA replication
Active means: 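Active siRNAs have a G2 robust z of 5 or more median absolute deviations over the median, which in these data means about 38% or higher of GMNN control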
The whole screen tested about 59,000 reagents; shown is a part drawn at random. In the full data, about 1,550 (2.6%) got an active call. 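G2 share is only a proxy for re-replication; each gene was hit by three separate siRNAs, and active genes were retested.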 A number with no mark means an inactive call. Reagents against one gene are numbered here. Not all columns of the deposit are shown. Not stated in the record: the amount of reagent.

OR5D18 (olfactory receptor family 5 subfamily D member 18) #1 gave G2 robust z-score 0.661; G2 cells, % of GMNN control 7.61.
Depletion of OR5D18 (olfactory receptor family 5 subfamily D member 18) #2 came out at: G2 robust z-score 0.273; G2 cells, % of GMNN control 4.89.
OR5D18 (olfactory receptor family 5 subfamily D member 18) #3 gave G2 robust z-score 0.354; G2 cells, % of GMNN control 5.46.
With knock-down of CYYR1 (cysteine and tyrosine rich 1) #1, the record shows G2 robust z-score 0.798; G2 cells, % of GMNN control 8.58.
After knock-down of CYYR1 (cysteine and tyrosine rich 1) #2 the results were G2 robust z-score -0.143; G2 cells, % of GMNN control 1.96.
For CYYR1 (cysteine and tyrosine rich 1) #3 the deposit lists G2 robust z-score -0.0166; G2 cells, % of GMNN control 2.85.
With knock-down of NLRC4 (NLR family CARD domain containing 4) #1 the results were G2 robust z-score -0.498; G2 cells, % of GMNN control -0.539.
Silencing of NLRC4 (NLR family CARD domain containing 4) #2 resulted in: G2 robust z-score -0.515; G2 cells, % of GMNN control -0.654.
After knock-down of NLRC4 (NLR family CARD domain containing 4) #3 the results were G2 robust z-score 0.555; G2 cells, % of GMNN control 6.87.
For TDRD7 (tudor domain containing 7) #1, the values are G2 robust z-score -1.02; G2 cells, % of GMNN control -4.18.
For TDRD7 (tudor domain containing 7) #2 the deposit lists G2 robust z-score 7.65 (active); G2 cells, % of GMNN control 56.8.
Against TDRD7 (tudor domain containing 7) #3 the deposit lists G2 robust z-score -0.00861; G2 cells, % of GMNN control 2.91.
Against SI (sucrase-isomaltase) #1, the entry reads G2 robust z-score -0.699; G2 cells, % of GMNN control -1.95.
Knock-down of SI (sucrase-isomaltase) #2 came out at: G2 robust z-score -0.173; G2 cells, % of GMNN control 1.75.
Silencing of SI (sucrase-isomaltase) #3 came out at: G2 robust z-score -0.186; G2 cells, % of GMNN control 1.66.
Silencing of NDUFAB1 (NADH:ubiquinone oxidoreductase subunit AB1) #1 gave: G2 robust z-score -1.11; G2 cells, % of GMNN control -4.87.
Silencing of NDUFAB1 (NADH:ubiquinone oxidoreductase subunit AB1) #2 came out at: G2 robust z-score 0.243; G2 cells, % of GMNN control 4.68.
Depletion of NDUFAB1 (NADH:ubiquinone oxidoreductase subunit AB1) #3 came out at: G2 robust z-score -0.815; G2 cells, % of GMNN control -2.77.
Silencing of UFM1 (ubiquitin fold modifier 1) #1 gave: G2 robust z-score 3.93; G2 cells, % of GMNN control 30.6.
With knock-down of UFM1 (ubiquitin fold modifier 1) #2, the record shows G2 robust z-score 2.08; G2 cells, % of GMNN control 17.6.
Knock-down of UFM1 (ubiquitin fold modifier 1) #3 resulted in: G2 robust z-score 1.52; G2 cells, % of GMNN control 13.6.
Depletion of BPIFB6 (BPI fold containing family B member 6) #1 came out at: G2 robust z-score -0.15; G2 cells, % of GMNN control 1.91.
For BPIFB6 (BPI fold containing family B member 6) #2 the deposit lists G2 robust z-score 1.1; G2 cells, % of GMNN control 10.7.
BPIFB6 (BPI fold containing family B member 6) #3 showed G2 robust z-score -0.416; G2 cells, % of GMNN control 0.038.
ZNF839 (zinc finger protein 839) #1 gave G2 robust z-score -0.891; G2 cells, % of GMNN control -3.3.
Silencing of ZNF839 (zinc finger protein 839) #2 came out at: G2 robust z-score -0.806; G2 cells, % of GMNN control -2.7.
Silencing of ZNF839 (zinc finger protein 839) #3 resulted in: G2 robust z-score -1.28; G2 cells, % of GMNN control -6.04.
Depletion of IDS (iduronate 2-sulfatase) #1 gave: G2 robust z-score 0.987; G2 cells, % of GMNN control 9.91.
Knock-down of IDS (iduronate 2-sulfatase) #2 came out at: G2 robust z-score 2.51; G2 cells, % of GMNN control 20.6.
IDS (iduronate 2-sulfatase) #3 showed G2 robust z-score -1.1; G2 cells, % of GMNN control -4.79.
